The text below walks through data of the supplement of paper PMC12819154, “High-throughput peptide-centric local stability assay extends protein–ligand identification to membrane proteins, tissues and bacteria” (Nature Structural & Molecular Biology, 2025).

The chains behind the UniProt entries cited, without tags or fusion partners. Where a name states a change or a piece, a line headed by the entry shows the natural chain unless it says otherwise.
UniProt Q16537, whole entry: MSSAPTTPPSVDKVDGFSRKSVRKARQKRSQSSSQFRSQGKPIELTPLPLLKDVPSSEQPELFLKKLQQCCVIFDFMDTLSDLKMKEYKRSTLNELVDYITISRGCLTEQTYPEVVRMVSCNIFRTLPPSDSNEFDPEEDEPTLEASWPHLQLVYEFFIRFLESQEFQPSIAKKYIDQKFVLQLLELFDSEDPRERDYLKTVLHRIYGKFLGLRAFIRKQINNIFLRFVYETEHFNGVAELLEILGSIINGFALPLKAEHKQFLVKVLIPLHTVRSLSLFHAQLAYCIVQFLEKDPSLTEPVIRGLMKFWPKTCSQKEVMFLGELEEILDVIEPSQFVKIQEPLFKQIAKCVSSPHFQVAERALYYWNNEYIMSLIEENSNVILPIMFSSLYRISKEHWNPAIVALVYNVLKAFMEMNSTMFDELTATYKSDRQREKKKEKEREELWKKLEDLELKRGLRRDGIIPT
UniProt Q15286: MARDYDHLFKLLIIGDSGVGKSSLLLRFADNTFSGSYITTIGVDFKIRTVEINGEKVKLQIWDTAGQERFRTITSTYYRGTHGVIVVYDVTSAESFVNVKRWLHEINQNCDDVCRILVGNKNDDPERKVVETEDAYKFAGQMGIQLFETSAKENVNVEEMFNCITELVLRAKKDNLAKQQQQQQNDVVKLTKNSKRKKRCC
UniProt Q2KHR2: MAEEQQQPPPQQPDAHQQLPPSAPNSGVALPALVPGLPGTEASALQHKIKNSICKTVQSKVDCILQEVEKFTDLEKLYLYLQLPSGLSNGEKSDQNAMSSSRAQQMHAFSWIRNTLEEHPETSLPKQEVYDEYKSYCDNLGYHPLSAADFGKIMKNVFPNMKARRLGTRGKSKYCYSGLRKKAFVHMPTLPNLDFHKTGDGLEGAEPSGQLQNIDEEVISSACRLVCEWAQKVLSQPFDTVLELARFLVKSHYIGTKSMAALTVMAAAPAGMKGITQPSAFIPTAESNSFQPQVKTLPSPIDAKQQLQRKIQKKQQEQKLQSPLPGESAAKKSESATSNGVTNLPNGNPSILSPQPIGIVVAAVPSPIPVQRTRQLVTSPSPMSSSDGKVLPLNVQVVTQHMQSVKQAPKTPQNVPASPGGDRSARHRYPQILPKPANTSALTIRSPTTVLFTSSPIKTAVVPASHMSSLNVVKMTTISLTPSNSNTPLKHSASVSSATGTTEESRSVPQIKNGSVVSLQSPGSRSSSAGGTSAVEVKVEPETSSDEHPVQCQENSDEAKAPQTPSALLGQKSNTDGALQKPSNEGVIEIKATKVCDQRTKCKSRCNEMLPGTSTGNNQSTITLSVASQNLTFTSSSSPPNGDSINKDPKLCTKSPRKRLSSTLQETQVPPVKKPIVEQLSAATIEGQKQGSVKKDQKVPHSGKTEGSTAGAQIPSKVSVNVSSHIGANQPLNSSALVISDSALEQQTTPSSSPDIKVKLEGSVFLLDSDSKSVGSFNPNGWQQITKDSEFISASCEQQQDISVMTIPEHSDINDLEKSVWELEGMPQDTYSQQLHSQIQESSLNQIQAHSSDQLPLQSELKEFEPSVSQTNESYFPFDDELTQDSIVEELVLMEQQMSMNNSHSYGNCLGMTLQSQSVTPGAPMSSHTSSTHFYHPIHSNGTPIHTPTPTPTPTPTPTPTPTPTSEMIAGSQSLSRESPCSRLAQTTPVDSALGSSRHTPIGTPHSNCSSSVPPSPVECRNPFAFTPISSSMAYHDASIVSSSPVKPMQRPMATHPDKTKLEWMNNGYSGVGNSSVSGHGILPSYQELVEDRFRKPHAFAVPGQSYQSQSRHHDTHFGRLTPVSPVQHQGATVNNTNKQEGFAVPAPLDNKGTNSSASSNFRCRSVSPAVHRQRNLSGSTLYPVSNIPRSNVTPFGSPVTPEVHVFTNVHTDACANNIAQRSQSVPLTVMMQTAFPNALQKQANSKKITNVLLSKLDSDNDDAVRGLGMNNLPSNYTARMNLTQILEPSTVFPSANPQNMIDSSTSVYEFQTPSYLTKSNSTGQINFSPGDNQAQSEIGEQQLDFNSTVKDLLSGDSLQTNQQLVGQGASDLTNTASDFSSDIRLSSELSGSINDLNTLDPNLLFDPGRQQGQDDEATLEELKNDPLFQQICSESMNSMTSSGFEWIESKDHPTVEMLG
UniProt Q15477, whole entry: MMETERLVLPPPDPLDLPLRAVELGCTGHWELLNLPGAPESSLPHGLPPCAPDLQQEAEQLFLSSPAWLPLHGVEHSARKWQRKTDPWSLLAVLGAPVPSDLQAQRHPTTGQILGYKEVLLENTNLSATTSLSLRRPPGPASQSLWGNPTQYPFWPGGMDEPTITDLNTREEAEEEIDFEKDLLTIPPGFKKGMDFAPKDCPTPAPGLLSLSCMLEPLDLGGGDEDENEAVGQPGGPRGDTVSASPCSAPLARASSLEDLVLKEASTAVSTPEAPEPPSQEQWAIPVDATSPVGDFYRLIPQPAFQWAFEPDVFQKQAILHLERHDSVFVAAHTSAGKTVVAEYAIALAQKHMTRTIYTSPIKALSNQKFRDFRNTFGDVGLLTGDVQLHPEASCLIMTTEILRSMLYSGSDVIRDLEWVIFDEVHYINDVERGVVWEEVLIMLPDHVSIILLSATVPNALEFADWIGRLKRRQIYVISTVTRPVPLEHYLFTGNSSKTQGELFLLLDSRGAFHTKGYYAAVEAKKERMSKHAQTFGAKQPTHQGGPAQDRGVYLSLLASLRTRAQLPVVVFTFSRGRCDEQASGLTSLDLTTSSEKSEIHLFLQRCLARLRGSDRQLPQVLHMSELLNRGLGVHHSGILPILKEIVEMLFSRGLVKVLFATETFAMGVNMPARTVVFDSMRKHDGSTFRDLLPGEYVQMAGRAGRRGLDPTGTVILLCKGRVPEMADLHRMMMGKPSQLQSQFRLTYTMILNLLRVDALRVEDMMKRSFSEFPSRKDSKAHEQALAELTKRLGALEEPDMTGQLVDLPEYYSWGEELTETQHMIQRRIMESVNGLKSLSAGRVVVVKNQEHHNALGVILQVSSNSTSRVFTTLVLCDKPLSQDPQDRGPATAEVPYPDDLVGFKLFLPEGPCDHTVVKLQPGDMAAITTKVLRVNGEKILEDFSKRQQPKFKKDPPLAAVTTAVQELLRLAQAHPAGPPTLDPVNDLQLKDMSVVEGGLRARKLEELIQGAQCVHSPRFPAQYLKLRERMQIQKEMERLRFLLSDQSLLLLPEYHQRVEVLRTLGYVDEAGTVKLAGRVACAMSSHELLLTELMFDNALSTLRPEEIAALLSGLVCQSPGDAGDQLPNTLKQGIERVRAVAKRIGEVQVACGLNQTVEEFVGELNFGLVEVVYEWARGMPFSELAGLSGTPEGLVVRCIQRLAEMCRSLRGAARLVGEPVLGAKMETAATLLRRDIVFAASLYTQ
UniProt Q17RN3: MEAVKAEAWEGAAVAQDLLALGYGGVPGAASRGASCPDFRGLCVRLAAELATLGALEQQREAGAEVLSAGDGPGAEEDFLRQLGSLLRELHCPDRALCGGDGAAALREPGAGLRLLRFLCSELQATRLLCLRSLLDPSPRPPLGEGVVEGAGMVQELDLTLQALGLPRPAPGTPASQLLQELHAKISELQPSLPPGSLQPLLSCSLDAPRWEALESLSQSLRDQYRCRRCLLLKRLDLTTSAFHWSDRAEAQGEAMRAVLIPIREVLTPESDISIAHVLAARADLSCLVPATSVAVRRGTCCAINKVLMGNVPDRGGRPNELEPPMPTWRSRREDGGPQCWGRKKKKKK
UniProt Q16670: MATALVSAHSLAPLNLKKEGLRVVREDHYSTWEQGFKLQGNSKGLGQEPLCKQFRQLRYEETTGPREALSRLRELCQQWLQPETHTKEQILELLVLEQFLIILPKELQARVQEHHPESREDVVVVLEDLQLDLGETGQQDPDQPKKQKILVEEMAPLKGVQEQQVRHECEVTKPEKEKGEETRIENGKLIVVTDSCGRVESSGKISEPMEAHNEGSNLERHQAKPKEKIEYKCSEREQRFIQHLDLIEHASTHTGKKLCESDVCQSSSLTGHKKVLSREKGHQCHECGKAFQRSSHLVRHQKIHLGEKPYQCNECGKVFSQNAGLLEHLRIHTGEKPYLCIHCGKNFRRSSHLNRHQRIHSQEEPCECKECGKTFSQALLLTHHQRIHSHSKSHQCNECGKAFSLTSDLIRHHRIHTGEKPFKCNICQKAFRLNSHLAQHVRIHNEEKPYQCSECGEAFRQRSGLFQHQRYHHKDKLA
UniProt Q16630, whole entry: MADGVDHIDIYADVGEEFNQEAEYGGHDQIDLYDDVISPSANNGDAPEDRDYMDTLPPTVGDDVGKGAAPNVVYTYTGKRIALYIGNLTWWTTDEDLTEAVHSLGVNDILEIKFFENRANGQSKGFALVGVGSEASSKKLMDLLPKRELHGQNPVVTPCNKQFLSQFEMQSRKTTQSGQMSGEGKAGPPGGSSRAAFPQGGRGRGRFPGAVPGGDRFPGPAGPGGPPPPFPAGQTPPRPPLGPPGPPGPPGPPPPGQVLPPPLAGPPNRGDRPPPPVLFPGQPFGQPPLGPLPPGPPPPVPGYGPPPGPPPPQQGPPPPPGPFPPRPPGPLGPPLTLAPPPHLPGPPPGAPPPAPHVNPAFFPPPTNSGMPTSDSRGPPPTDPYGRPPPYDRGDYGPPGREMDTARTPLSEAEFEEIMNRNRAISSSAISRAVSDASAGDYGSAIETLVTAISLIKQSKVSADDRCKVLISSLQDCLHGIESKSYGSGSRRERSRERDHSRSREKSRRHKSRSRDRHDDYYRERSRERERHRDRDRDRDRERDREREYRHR
UniProt Q15366, whole entry: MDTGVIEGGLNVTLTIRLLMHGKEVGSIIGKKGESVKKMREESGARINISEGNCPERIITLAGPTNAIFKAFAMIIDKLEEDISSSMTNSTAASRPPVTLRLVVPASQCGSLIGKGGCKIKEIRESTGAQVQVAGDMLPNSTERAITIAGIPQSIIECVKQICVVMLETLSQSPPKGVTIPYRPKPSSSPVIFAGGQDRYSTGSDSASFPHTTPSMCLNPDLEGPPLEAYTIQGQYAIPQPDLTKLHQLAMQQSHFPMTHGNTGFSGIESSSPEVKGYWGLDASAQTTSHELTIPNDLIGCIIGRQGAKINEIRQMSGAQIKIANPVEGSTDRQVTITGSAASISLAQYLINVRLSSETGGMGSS

Some of the results follow. Most values lie at the level of the controls, where differences are scatter.

Compound in the assay: CN[C@@H]1C[C@H]2O[C@@](C)([C@@H]1OC)n1c3ccccc3c3c4c(c5c6ccccc6n2c5c31)C(=O)NC4 [staurosporine]
Description: log2 fold change of tryptic peptide abundance, ligand vs vehicle (limited proteolysis) (log2 ratio); higher = more trypsin-susceptible (destabilized). As to conditions: ligand concentration: 20 uM; sample: K562 cleared lysate; digestion: 4 min, 22 C (HT-PELSA RT4min, Orbitrap Astral).
As to “PPP2R5E (peptide sequence: SSAPTTPPSVDKVDGFSR, peptide start residue: 2) (UniProt Q16537)”, the log2 fold change is -0.092. Turning to “UniProt Q15286 (peptide sequence: TVEINGEKVK, peptide start residue: 49)”, the log2 fold change came out at 0.294. On to “RFX7 (peptide sequence: SNTDGALQKPSNEGVIEIK, peptide start residue: 476) (UniProt Q2KHR2)”, for which the log2 fold change worked out at 0.571. For “SKIV2L (peptide sequence: DMSVVEGGLR, peptide start residue: 992) (UniProt Q15477)”, the log2 fold change was 0.504. As for “FAM98C (peptide sequence: VLMGNVPDR, peptide start residue: 307) (UniProt Q17RN3)”, the log2 fold change is -0.209. Then “UniProt Q16670 (peptide sequence: AFSLTSDLIR, peptide start residue: 402)”, with -0.254; and “CPSF6 (peptide sequence: RELHGQNPVVTPCNK, peptide start residue: 147) (UniProt Q16630)”, with -0.251; and “PCBP2 (peptide sequence: MREESGAR, peptide start residue: 39) (UniProt Q15366)”, with 0.265.
